Measurements from paper PMC4960548.
These are yes or no findings as the source states them, for the method shown. In cells and extracts the contact can be indirect. Some binding calls cover weakened binding; strength is not graded here.

By UniProt entry, the sequences of proteins in these tests, tags left out.
UniProt Q12778: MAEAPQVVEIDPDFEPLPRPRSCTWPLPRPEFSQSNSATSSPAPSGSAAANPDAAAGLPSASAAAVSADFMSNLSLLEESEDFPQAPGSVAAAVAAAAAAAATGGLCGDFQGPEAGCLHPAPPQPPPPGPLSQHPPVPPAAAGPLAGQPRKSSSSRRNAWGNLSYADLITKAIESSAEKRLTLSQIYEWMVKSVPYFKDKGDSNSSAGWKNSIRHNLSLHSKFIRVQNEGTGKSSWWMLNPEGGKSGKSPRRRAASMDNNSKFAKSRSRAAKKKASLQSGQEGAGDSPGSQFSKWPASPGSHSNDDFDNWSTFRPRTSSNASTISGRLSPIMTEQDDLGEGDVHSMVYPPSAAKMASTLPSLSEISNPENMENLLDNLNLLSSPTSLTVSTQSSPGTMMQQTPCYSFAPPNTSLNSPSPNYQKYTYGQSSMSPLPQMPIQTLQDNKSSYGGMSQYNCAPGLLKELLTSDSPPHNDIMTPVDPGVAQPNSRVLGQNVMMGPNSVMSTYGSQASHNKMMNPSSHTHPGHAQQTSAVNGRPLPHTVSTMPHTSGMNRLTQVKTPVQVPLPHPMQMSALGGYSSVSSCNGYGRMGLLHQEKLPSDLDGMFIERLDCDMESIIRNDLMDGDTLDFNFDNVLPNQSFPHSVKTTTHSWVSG
UniProt Q8N6T7: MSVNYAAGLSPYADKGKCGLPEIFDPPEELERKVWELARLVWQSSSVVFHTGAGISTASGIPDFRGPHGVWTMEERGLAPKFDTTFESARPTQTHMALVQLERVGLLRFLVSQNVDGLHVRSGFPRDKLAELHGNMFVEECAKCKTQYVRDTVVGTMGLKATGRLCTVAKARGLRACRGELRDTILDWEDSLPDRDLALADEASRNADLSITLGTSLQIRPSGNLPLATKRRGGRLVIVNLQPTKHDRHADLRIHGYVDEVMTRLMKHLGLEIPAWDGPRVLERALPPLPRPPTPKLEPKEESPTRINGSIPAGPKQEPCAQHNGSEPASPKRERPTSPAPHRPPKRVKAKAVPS

Molecular target: forkhead box protein O1 (FoxO1) (UniProt Q12778)
Assay: co-IP; HEK293 cells transfected with Flag or Sirt6; 250 ug of lysate protein precleared with protein G-agarose, incubated with anti-FoxO1 overnight at 4 °C, then protein G-agarose at 4 °C for 2 h; blot probed for Sirt6

binding: binds
Substance: Sirtuin 6 (Flag-Sirt6) (from UniProt Q8N6T7 1-355) (enzyme)
